± gives the standard deviation. The entries are a selection whose mix differs from that of the whole data set. Many of these values have a large error.

In the test the test system is MIWI (PIWIL1) piRISC loaded with Kctd7 piRNA (30 nt). Kind of test: pre-steady-state target cleavage rate (min^-1); MIWI and MILI are mouse PIWI proteins and EfPiwi is from a freshwater sponge; tags in brackets are library labels; higher = faster piRNA-guided slicing of the target. As to conditions: guide: Kctd7 piRNA 5'p-UGUUAAUCUCUCAGAGAAGGUGACAGUGAU; auxiliary factor: 500 nM mouse GTSF1. The essentials:
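In Cleave-'n-Seq, a transcribed, DNA-blocked target RNA library (0.1 nM) was combined with 1 nM active affinity-purified piRISC bearing one synthetic guide, with or without 500 nM GTSF1 partner protein. Reactions ran in HEPES–potassium acetate buffer at 33 °C for 0–8 or 0–960 min. Uncleaved targets were sequenced and normalised to depth and to weakly complementary targets, three trials were pooled, and k3 was capped at 0.0001 min^-1. The pre-steady-state cleavage rate was obtained by fitting a burst-and-steady-state model.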
Take AUCACUGUCACCUUCUCUGAGACUAAUUGA: the “pre-steady-state target cleavage rate” value was 0.00228 ± 0.0041.

Regarding UAGUGUGUCACCAACUCUGAGAGAUUAUGA, the “pre-steady-state target cleavage rate” value was 0.00285 ± 0.0045.

As for UACACUGUCACCUUCUCUGACUCAUAUUGA, the “pre-steady-state target cleavage rate” value was 0.00103 ± 0.008.

For UACACUGUCACGUUCUCUGUGAGAUUAACA, the “pre-steady-state target cleavage rate” value was determined as 0.233 ± 0.014.

UAGUGACAGUCCUUCUCUGAGAGUUUAUGA: the “pre-steady-state target cleavage rate” value was 0.000398 ± 0.019.

As for “UACACUGUCACCUUCUCUCUCUCUAAUUGA [g13:g28:cont:t1A]”, the “pre-steady-state target cleavage rate” value amounted to 0.00167 ± 0.0077.

With AUCACUGUCACCUUGUCUGAGAGAUUUACA, the “pre-steady-state target cleavage rate” value stood at 0.799 ± 0.14.

As for UAGUGUGUCACCUUCUCUCUGAGAUUAUGA, the “pre-steady-state target cleavage rate” value was determined as 0.00134 ± 0.0097.

As to UAGUGACAGUGCUUCUCUCAGAGUUUAACA, the “pre-steady-state target cleavage rate” value amounted to 0.000658 ± 0.0086.

As to UAGACUGUCACCUUCUCUGAGUCAUUAAGA, the “pre-steady-state target cleavage rate” value turned out to be 0.000677 ± 0.0077.

With UAGACUGUCUCCUUCUCUGAGAGAUUAACA, the “pre-steady-state target cleavage rate” value came out at 0.662 ± 0.04.

In the case of UAGUGUGUCACCUUGACUGAGAGAUUAAGA, the “pre-steady-state target cleavage rate” value is 0.0019 ± 0.0058.

Regarding UAGUGAGUCACCUUCUCUGAGACUAUUUGA, the “pre-steady-state target cleavage rate” value was determined as 0.00203 ± 0.0065.

Take UAGUGACAGACCUUCUCUGAGUCUUUAUGA: the “pre-steady-state target cleavage rate” value was found to be 0.000417 ± 0.022.

In the case of UAGUGUGUCACCUUCUGUGAGAGAUAUUGA, the “pre-steady-state target cleavage rate” value turned out to be 0.0041 ± 0.0043.

Turning to UAGUGACAGUCCUUGACUGAGAGAUUAACA, the “pre-steady-state target cleavage rate” value stood at 0.00119 ± 0.0056.

As to UAGUGACAGUCCAUCUCUGAGACAUUAACA, the “pre-steady-state target cleavage rate” value turned out to be 0.00139 ± 0.0046.

Turning to UAGUGACUCACCUACUCUGAGAGAUUUUGA, the “pre-steady-state target cleavage rate” value is 0.000814 ± 0.0072.

UAGUGACAGUCCUUCUCUGACAGAUUAUCA: the “pre-steady-state target cleavage rate” value was determined as 0.0004 ± 0.017.

Regarding UAGUGACAGUGCUACUCAGAGAGAUUAACA, the “pre-steady-state target cleavage rate” value came to 0.000271 ± 0.014.

In the case of UAGUGACACACCUUCUCUGAGUGAUUUUGA, the “pre-steady-state target cleavage rate” value is 0.000379 ± 0.016.

Take UAGUGAGUCACCUUCUCUCUCAGAUUAACA: the “pre-steady-state target cleavage rate” value was found to be 0.0031 ± 0.0046.

In the case of UAGUGACAGUGCUUGUCUGAGAGUUUAACA, the “pre-steady-state target cleavage rate” value worked out at 0.0023 ± 0.0047.

In the case of UAGUCUGUCACCUUCUCUCUCAGAUUAACA, the “pre-steady-state target cleavage rate” value is 0.00135 ± 0.0067.

As for UACACUGUCUGGUUCUCUGAGAGAUUAUGA, the “pre-steady-state target cleavage rate” value came to 0.00191 ± 0.0056.

As for UAGUGACAGUCCAUCUCUGAGAGAUAAACA, the “pre-steady-state target cleavage rate” value came out at 0.00174 ± 0.0048.

Consider UAGUGACAGUCCUUCAGUGAGAGAUUAAGA, for which the “pre-steady-state target cleavage rate” value is 0.00123 ± 0.0073.

On to UAGUGACAGUCCUUCUCUGAGAGUUAAACA, for which the “pre-steady-state target cleavage rate” value stood at 0.00128 ± 0.0043.

In the case of UAGUGACAGUGGUUCUCUGACUCAUUAACA, the “pre-steady-state target cleavage rate” value was determined as 0.000177 ± 0.02.

AUCACUGUCACCUUCUCUGAGUCAUUAAGA: the “pre-steady-state target cleavage rate” value stood at 0.00223 ± 0.0043.

For UAGUGUGUCAGGUUCUCUGAGAGAUAUUGA, the “pre-steady-state target cleavage rate” value was found to be 0.00159 ± 0.0049.

Turning to UAGUGACAGUGCUUGUCUGAGACAUUAACA, the “pre-steady-state target cleavage rate” value worked out at 0.000264 ± 0.025.

UAGUGACAGAGCUUCUCUGAGUGAUUAACA: the “pre-steady-state target cleavage rate” value is 0.00306 ± 0.0047.

As for UAGUCUGUCAGGAUCUCUGAGAGAUUUUGA, the “pre-steady-state target cleavage rate” value came out at 0.00146 ± 0.006.

For UAGUGACAGUGGAAGACUGAGACAUUAAGA, the “pre-steady-state target cleavage rate” value stood at 0.000134 ± 0.035.

For the sequence UAGUGACAGUGCUUCUCUGAGAGUUUAUCA, the “pre-steady-state target cleavage rate” value came to 0.000471 ± 0.0083.

In the case of UUCACUGUCAGGUUCUCUGAGAGAUUUUGA, the “pre-steady-state target cleavage rate” value worked out at 0.00281 ± 0.0037.

In the case of UAGUGACACACGAACUCUGAGAGAUUAACA, the “pre-steady-state target cleavage rate” value came out at 0.000281 ± 0.011.

In the case of UAGUGACAGUGGAACUCUGAGAAAUUAACA, the “pre-steady-state target cleavage rate” value stood at 0.000112 ± 0.048.

As for UAGUGACUCACGAUCUCUGAGAGAUUAACA, the “pre-steady-state target cleavage rate” value worked out at 0.00958 ± 0.0018.

Take UAGUGACAGUGCUUCUCUGAGAGAAUAACA: the “pre-steady-state target cleavage rate” value amounted to 0.00147 ± 0.0048.

As to “UACACUGUCACCUUCUCACUCUCUAAUUGA [g14:g28:cont:t1A]”, the “pre-steady-state target cleavage rate” value is 0.00103 ± 0.0094.

For AACACUCUCACCUUCUCUGAGAGAUUAACA, the “pre-steady-state target cleavage rate” value turned out to be 0.564 ± 0.035.

As for UAGUGACUCACCUUCAGUGAGAGAUUAAGA, the “pre-steady-state target cleavage rate” value turned out to be 0.00239 ± 0.0055.

As to UAGUGACAGUGGAUCUCUGAGCAGAUUAACA, the “pre-steady-state target cleavage rate” value worked out at 0.000178 ± 0.026.

As for UAGUGACAGUGCUUCUCUGAGAGAUUUUCA, the “pre-steady-state target cleavage rate” value came out at 0.000685 ± 0.0076.

As to UACACUGUCACCUUCUCUGAGUGAUAUUGA, the “pre-steady-state target cleavage rate” value was 0.00215 ± 0.0072.

For the sequence UAGUGAGUCACCUUGACUGAGAGAUUAUGA, the “pre-steady-state target cleavage rate” value worked out at 0.00135 ± 0.0071.

Regarding UAGUGAGUCACCUUCACUGAGAGAUAUUGA, the “pre-steady-state target cleavage rate” value is 0.00186 ± 0.0061.

With UACACUGUCACCUUGAGUGAGAGAUUAUGA, the “pre-steady-state target cleavage rate” value was determined as 0.000699 ± 0.021.

Consider UAGACUGUCACCUUCUCUGAGACUAUAACA, for which the “pre-steady-state target cleavage rate” value is 0.000637 ± 0.0066.

UAGUGACAGUCCUUCUCUGACGAGAUUAACA: the “pre-steady-state target cleavage rate” value was 0.000915 ± 0.0059.

On to UAGUGAGUCACGAACUCUGAGAGAUUAAGA, for which the “pre-steady-state target cleavage rate” value was determined as 0.00178 ± 0.004.

For the sequence UAGUCUGUCACCUUCUCUGAGUGAUUAUGA, the “pre-steady-state target cleavage rate” value amounted to 0.00211 ± 0.0061.

As for UACACUGUCAGGUUCUCUGAGAGAUAUUGA, the “pre-steady-state target cleavage rate” value turned out to be 0.000877 ± 0.0085.

UAGUGACAGUGGAAGAGACAGAGAUUAAUA: the “pre-steady-state target cleavage rate” value was found to be 0.000196 ± 0.051.

As for UAGUGACUCACCUUGAGUGAGAGAUAUUGA, the “pre-steady-state target cleavage rate” value was found to be 0.000682 ± 0.011.

As to UAGUGAGUCACCUUCUCUGACAGAUUUUGA, the “pre-steady-state target cleavage rate” value is 0.00267 ± 0.0051.

Turning to “UACACUGUCACCUUCUCUGACUCUAAUUGA [g11:g28:cont:t1A]”, the “pre-steady-state target cleavage rate” value is 0.00123 ± 0.0084.

As to UAGUGACAGUGGAAGAGUGAGACAUUAUCA, the “pre-steady-state target cleavage rate” value is 0.000135 ± 0.038.

With UAGUGACAGUCCUUCUCUCAGACAUUAACA, the “pre-steady-state target cleavage rate” value came out at 0.000875 ± 0.0072.

In the case of AUCACUCACACCUUCUCUGAGAGAUUAACA, the “pre-steady-state target cleavage rate” value is 0.587 ± 0.027.

In the case of UACACUGUCACCUUCUCUGAGUCUUUAAGA, the “pre-steady-state target cleavage rate” value amounted to 0.00194 ± 0.0057.

With UAGUGACAGACCAUCACUGAGAGAUUAACA, the “pre-steady-state target cleavage rate” value came to 0.0035 ± 0.0038.

Consider AUCACUGUCACCUUCUCUGAGACUAUAUGA, for which the “pre-steady-state target cleavage rate” value was found to be 0.00256 ± 0.0038.

With UAGUGACAGACCUAGACUGAGAGAUUAACA, the “pre-steady-state target cleavage rate” value worked out at 0.000476 ± 0.016.

Consider UAGUGACAGUGCUUCUCUGAGAAUUAACA, for which the “pre-steady-state target cleavage rate” value was found to be 0.000955 ± 0.0056.

With UAGUCUGUCACGAUCUCUGAGAGAUUUUGA, the “pre-steady-state target cleavage rate” value turned out to be 0.00157 ± 0.0067.

As for UAGUGACAGUCCUUCUCUGAGAGAAUAUGA, the “pre-steady-state target cleavage rate” value came out at 0.000128 ± 0.034.

Regarding UAGACUGUCACCUUCUCUGUCUGAUUUUGA, the “pre-steady-state target cleavage rate” value turned out to be 0.000568 ± 0.011.

With UAGUGACAGUGCAUCUCUGAGAGAUUAUCA, the “pre-steady-state target cleavage rate” value came to 0.000129 ± 0.02.

The values are drawn from the supplement of paper PMC10338343.
